Measured data: PubChem BioAssay AID652243 (Drosophila RNAi Screening Center, 2013)

Assay: 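Knock-downs that decrease or increase androgen receptor reporter signal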 (primary screen)
Cells: Drosophila S2R+ cells
Knock-down reagent: long dsRNA against Drosophila genes
Duration: 72 h (48 h, then 24 h hormone)
Treatment: synthetic androgen R1881 at 10 nM for 24 h
Measured: 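Per-well raw luminescence of the androgen-driven firefly reporter and of the Renilla control, two replicates each, without normalisation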
Direction: firefly reporter light: higher = more light from androgen-responsive reporter; Renilla control light: higher = more constitutive control signal (cell number, transfection)
Call rule: 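Hit when the log firefly-to-Renilla ratio dropped or increased by a fixed fold versus the mean of GFP or LacZ controls across duplicate plates; lowering cut given as 1.5 and as 3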
Meaning of the calls: active = hit: reporter lowered or raised; inactive = no hit
The screen tested about 24,000 reagents; below is a random part of those with a known target gene and a result. Over the whole deposit, 246 (1%) got an active call. 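Plates not normalised; calls are printed but the firefly/Renilla ratio behind them is not deposited; fold cut for lowering reported inconsistently.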 Raw values vary from plate to plate and are shown uncorrected. Not given: the amount of reagent.

no.	target	dsRNA	firefly reporter light, replicate 1	firefly reporter light, replicate 2	Renilla control light, replicate 1	Renilla control light, replicate 2	Call
1	beta'COP (GeneID 45757)	DRSC03492	6.28e5	5.22e5	1.26e6	6.60e5	inactive
2	beta'COP (GeneID 45757)	DRSC26650	2.86e5	3.12e5	5.45e5	5.33e5	inactive
3	Vm26Ac (GeneID 33828)	DRSC02329	86076	44647	9.06e5	7.67e5	inactive
4	Vm26Ac (GeneID 33828)	DRSC26887	3.70e5	3.49e5	1.02e6	8.64e5	inactive
5	CG7069 (GeneID 42621)	DRSC16188	86269	61153	7.52e5	5.98e5	inactive
6	CG7069 (GeneID 42621)	DRSC36949					inactive
7	CG7069 (GeneID 42621)	DRSC36950					inactive
8	CG31125 (GeneID 318599)	DRSC13684	1.06e5	66073	1.53e5	1.82e5	inactive
9	CG31125 (GeneID 318599)	DRSC25124	8.62e5	1.38e6	7.48e5	8.95e5	inactive
10	CG32572 (GeneID 32657)	DRSC19525	3.23e5	3.22e5	3.32e6	3.14e6	inactive
11	CG32572 (GeneID 32657)	DRSC19526	4.91e5	4.37e5	3.51e6	2.76e6	inactive
12	CG32572 (GeneID 32657)	DRSC30085	7.57e5	9.83e5	1.16e6	9.60e5	inactive
13	Spc105R (GeneID 40300)	DRSC11663	3.63e5	2.44e5	2.46e6	2.49e6	inactive
14	Spc105R (GeneID 40300)	DRSC39104	4.92e5	4.43e5	7.37e5	7.97e5	inactive
15	Zaf1 (GeneID 41394)	DRSC16121	1.87e5	1.62e5	2.15e6	2.35e6	inactive
16	Obp44a (GeneID 35789)	DRSC06838	2.47e5	3.79e5	1.51e6	1.99e6	inactive
17	Obp44a (GeneID 35789)	DRSC26785	2.90e5	2.95e5	4.79e5	5.52e5	inactive
18	GCC185 (GeneID 41459)	DRSC15493	1.90e5	1.69e5	2.67e6	2.20e6	inactive
19	Sara (GeneID 44263)	DRSC04653	1.95e5	2.97e5	1.26e6	1.42e6	inactive
20	CG32971 (GeneID 318271)	DRSC01372	5.14e5	4.64e5	9.36e5	79119	inactive
21	CG2540 (GeneID 32216)	DRSC19856	82215	58960	7.64e5	7.09e5	inactive
22	udt (GeneID 42809)	DRSC14214	1.42e5	1.42e5	2.05e6	2.00e6	inactive
23	CG7889 (GeneID 32916)	DRSC20066	8.56e5	9.37e5	2.19e6	1.95e6	inactive
24	CG7889 (GeneID 32916)	DRSC26654	5.08e5	6.32e5	5.48e5	5.33e5	inactive
25	CG12869 (GeneID 36616)	DRSC06208	44214	83850	7.80e5	7.80e5	inactive
26	Sas-6 (GeneID 43555)	DRSC15061	1.74e5	1.96e5	2.10e6	2.26e6	inactive
27	CG17855 (GeneID 34269)	DRSC02638	1.39e5	1.49e5	1.72e6	1.72e6	inactive
28	tipE (GeneID 38504)	DRSC08738	8.81e5	5.14e5	1.83e6	1.15e6	inactive
29	tipE (GeneID 38504)	DRSC29985	5.28e5	5.41e5	9.75e5	1.06e6	inactive
30	gny (GeneID 34409)	DRSC02810	8.49e5	9.00e5	1.25e6	2.07e6	inactive
31	fok (GeneID 44380)	DRSC02103	1.64e5	1.60e5	1.20e6	1.23e6	inactive
32	fok (GeneID 44380)	DRSC23907	6.38e5	3.65e5	6.36e5	5.88e5	inactive
33	CG13634 (GeneID 42951)	DRSC14635	1.67e5	1.75e5	1.82e6	2.32e6	inactive
34	Nha2 (GeneID 42710)	DRSC14689	1.69e5	1.76e5	2.71e6	2.24e6	inactive
35	Nha2 (GeneID 42710)	DRSC15619	8666	23289	83118	1.26e5	inactive
36	Nha2 (GeneID 42710)	DRSC15623	1.23e5	1.60e5	2.19e6	2.62e6	inactive
37	CG33093 (GeneID 42654)	DRSC15775	4.25e5	4.97e5	2.92e6	3.81e6	inactive
38	omd (GeneID 41674)	DRSC16507	95296	1.01e5	5.33e5	5.50e5	inactive
39	omd (GeneID 41674)	DRSC29369	1.09e6	1.02e6	1.47e6	1.47e6	inactive
40	CG3062 (GeneID 31396)	DRSC18572	3.17e5	2.69e5	3.88e6	3.02e6	inactive
41	RpL6 (GeneID 43723)	DRSC14323	1.78e5	1.74e5	1.30e6	2.08e6	inactive
42	RpL6 (GeneID 43723)	DRSC22384	2.14e5	3.31e5	1.40e5	1.42e5	inactive
43	RpL6 (GeneID 43723)	DRSC25982	1.67e5	2.53e5	4.34e5	3.07e5	inactive
44	pcx (GeneID 31204)	DRSC18186	2.69e5	3.89e5	3.88e6	3.06e6	inactive
45	pcx (GeneID 31204)	DRSC18187	3.86e5	3.86e5	3.63e6	3.10e6	inactive
46	pcx (GeneID 31204)	DRSC18188	3.58e5	4.86e5	2.86e6	3.55e6	inactive
47	pcx (GeneID 31204)	DRSC18189	3.87e5	4.03e5	3.77e6	3.28e6	inactive
48	pcx (GeneID 31204)	DRSC18190	3.76e5	3.18e5	2.73e6	2.68e6	inactive
49	pcx (GeneID 31204)	DRSC18816	1.07e5	94506	1.10e6	1.13e6	inactive
50	CG9062 (GeneID 36199)	DRSC07327	4.54e5	2.50e5	1.69e6	1.41e6	inactive
51	CG9062 (GeneID 36199)	DRSC27558	2.87e5	2.89e5	4.53e5	8.00e5	inactive
52	pav (GeneID 38515)	DRSC08730	1.17e5	1.07e5	2.06e6	2.05e6	inactive
53	pav (GeneID 38515)	DRSC25088	5.88e5	3.07e5	5.44e5	5.49e5	inactive
54	Polr2G (GeneID 261631)	DRSC16068	1.42e5	1.30e5	4.33e5	5.32e5	inactive
55	Sk1 (GeneID 32089)	DRSC19774	2.56e5	4.16e5	2.23e6	2.05e6	inactive
56	Sk1 (GeneID 32089)	DRSC36810					inactive
57	Chd1 (GeneID 33505)	DRSC00745	8.49e5	7.95e5	1.73e6	1.24e6	inactive
58	Ac78C (GeneID 40333)	DRSC11467	1.23e5	1.15e5	1.64e5	1.27e5	inactive
59	Ac78C (GeneID 40333)	DRSC11602	1.98e5	1.35e5	1.94e6	2.01e6	inactive
60	Ac78C (GeneID 40333)	DRSC11619	3.97e5	3.41e5	2.64e6	3.70e6	inactive

8 entries already listed, sorted by “Renilla control light, replicate 2”, lowest first.
target	dsRNA	firefly reporter light, replicate 1	firefly reporter light, replicate 2	Renilla control light, replicate 1	Renilla control light, replicate 2	Call
Nha2 (GeneID 42710)	DRSC15619	8666	23289	83118	1.26e5	inactive
fok (GeneID 44380)	DRSC23907	6.38e5	3.65e5	6.36e5	5.88e5	inactive
tipE (GeneID 38504)	DRSC29985	5.28e5	5.41e5	9.75e5	1.06e6	inactive
tipE (GeneID 38504)	DRSC08738	8.81e5	5.14e5	1.83e6	1.15e6	inactive
fok (GeneID 44380)	DRSC02103	1.64e5	1.60e5	1.20e6	1.23e6	inactive
gny (GeneID 34409)	DRSC02810	8.49e5	9.00e5	1.25e6	2.07e6	inactive
Nha2 (GeneID 42710)	DRSC14689	1.69e5	1.76e5	2.71e6	2.24e6	inactive
CG13634 (GeneID 42951)	DRSC14635	1.67e5	1.75e5	1.82e6	2.32e6	inactive
